US20260042862A1
Substitutions are numbered along the chain they refer to. No constants are given. Whether binding was seen depends on the method and setting. Some binding calls cover weakened binding; strength is not graded here.

Amino acid sequences for entries named in this document (tags omitted). Residues count along the entry.
UniProt P51654, residues 25-559: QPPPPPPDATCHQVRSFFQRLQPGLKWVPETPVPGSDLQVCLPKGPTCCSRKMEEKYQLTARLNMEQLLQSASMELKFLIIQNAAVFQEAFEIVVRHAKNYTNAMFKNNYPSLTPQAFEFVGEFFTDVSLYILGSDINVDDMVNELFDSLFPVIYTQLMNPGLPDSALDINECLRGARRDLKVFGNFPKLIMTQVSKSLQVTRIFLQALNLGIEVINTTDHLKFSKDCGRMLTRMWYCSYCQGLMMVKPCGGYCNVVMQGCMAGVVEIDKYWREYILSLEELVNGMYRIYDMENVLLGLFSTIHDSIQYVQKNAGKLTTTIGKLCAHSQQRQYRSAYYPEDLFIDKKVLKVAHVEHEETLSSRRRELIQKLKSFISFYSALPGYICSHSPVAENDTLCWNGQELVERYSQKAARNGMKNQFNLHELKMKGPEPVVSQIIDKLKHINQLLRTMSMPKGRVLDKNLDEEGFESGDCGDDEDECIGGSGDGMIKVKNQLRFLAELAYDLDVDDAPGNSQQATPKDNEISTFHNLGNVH
UniProt Q8CFZ4: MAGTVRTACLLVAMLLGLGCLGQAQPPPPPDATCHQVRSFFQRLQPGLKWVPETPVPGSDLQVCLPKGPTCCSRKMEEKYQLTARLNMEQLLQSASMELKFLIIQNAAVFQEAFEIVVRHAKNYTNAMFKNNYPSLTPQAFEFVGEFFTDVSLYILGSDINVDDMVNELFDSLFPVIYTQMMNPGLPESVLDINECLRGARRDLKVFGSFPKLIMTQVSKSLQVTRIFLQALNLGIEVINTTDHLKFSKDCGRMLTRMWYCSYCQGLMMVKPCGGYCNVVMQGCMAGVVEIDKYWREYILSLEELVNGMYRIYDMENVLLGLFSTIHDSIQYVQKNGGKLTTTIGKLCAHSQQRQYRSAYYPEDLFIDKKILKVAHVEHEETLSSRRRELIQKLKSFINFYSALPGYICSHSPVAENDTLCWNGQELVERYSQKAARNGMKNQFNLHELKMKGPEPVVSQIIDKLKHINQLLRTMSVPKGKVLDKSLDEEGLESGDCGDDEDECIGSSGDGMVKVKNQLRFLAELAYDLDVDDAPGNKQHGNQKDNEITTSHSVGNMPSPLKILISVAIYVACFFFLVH

B1: anti-GPC-3 IgG1 clone 1C4 (antibody, V domains shown)
VH: QVQLVQSGGGLVKPGRSLRLSCTASGFTFGDYAMHWVRQAPGKGLEWVAVISYDGSNKYYADSVKGRFTISRDNSKNTLYLQMNSLRAEDTAVYYCARDYGDYYRPYGMDVWGQGTT
VL: DIQMTQSPSTLSASVGDRVTITCRASQSISKWLAWYQHKPGKAPKVLIYKASTLQSGVPSRFSGSGSGTEFTLTISSLQPEDFATYYCQQLNSYPLTFGGGTK
B2: anti-GPC-3 IgG1 clone 1D3 (antibody, V domains shown)
VH: QVQLVQSGAEVKKPGASVKVSCKASGYTFTGYYMHWVRQAPGQGLEWMGWINPNSGGTNYAQNFQGRVTITRDTSASTAYMELSSLRSEDTAVYYCARGSWQTGSFDIWGQGTT
VL: SYELTQPPSVSGTPGQSVTISCSGSNSNLGSNYVYWYQVVPGTAPKLVIYRNKYRPPGVPDRFSGSKSGTSASLAISGLRSDDEAEYYCSGWDDSLSGRLFGGGTK
B3: anti-GPC-3 IgG1 clone 1H10 (antibody, V domains shown)
VH: QLQLQESGGGLVQPGGSLRLSCAASGFTFSSYVMSWVRQAPGKGLEWVSTISGSGGSTYYADSVKGRFTISRDNSKNTLYLQMSSLRAEDTAVYYCVMGWYFDLWGRGTL
VL: EIVLTQSPGTLSLSPGERATLSCRASQSVSSSYLAWYQQKPGQAPRLLIYDASNRATGIPARFSGSGSGTDFTLTISSLEPEDFAVYYCQQRSNWPPRATFGQGTR
B4: anti-GPC-3 IgG1 clone 1D8 (antibody, V domains shown)
VH: QVQLVQSGAEVKKPGASVKVSCKASGYTFTSYGISWVRQAPGQGLEWMGWISAYNGNTNYAQKLQGRVTMTTDTSTSTAYMELRSLRSDDTAVYYCARDGGLIAAAFGYYYYGMDVWGQGTT
VL: EIVLTQSPGTLSLSPGERATLSCRASQSVSSYLAWYQQKPGQAPRLLIYGASSRATGIPDRFSGSGSGTDFTLTISRLEPEDFAVYYCQQYERPPTFGGGTK
B5: anti-GPC-3 IgG1 clone 1A12 (antibody, V domains shown)
VH: QVQLQQWGAGLLKPSETLSLTCAAYGGSFSGYYWSWIRQPPGKGLEWIGEINHSGSTNYNPSLKSRVTISVDTSKNQFSLKLSSVTAADTAVYYCARLYKRRPFDYWGQGTL
VL: ETTLTQSPGTLSLSPGERATLSCRASQSISSIYLAWYQQKPGQAPRLLIYGASRRATGIPDRFSGSGSGTDFTLTISRLEPEDFAVYYCQQYGSSLRTFGQGTK
B6: anti-GPC-3 IgG1 clone 1F4 (antibody, V domains shown)
VH: B5 VH with A24V, A87V
VL: B5 VL with I29V, I32T, I59S, D61E, S66G, Q91H, S94N, L96P, R97G
B7: anti-GPC-3 IgG1 clone 4G4 (antibody, V domains shown)
VH: B5 VH with A24V
VL: B5 VL with I29V, I32S, G51N, T70A, E80D, Y88F, L96P, R97Q
B8: anti-GPC-3 IgG1 clone 3G12 (antibody, V domains shown)
VH: B5 VH with A24V
VL: B5 VL with I29V, I32S, P41R, T70S, L96P, R97S
B9: anti-GPC-3 IgG1 clone 5C4 (antibody, V domains shown)
VH: QVQLQESGGGLVKPGGSLRLSCAASGFTFSSYSMNWVRQAPGKGLEWVAVISYDGSNKYYADSVKGRFTISRDNSKNTLYLQMNSLRTEDTAVYYCARGAGPFTGFNWFDPWGQGTL
VL: EIVLTQSPATLSVSPGERATLSCRASQSVDSYLAWYQQKPGQAPRLLIYSASTRATGIPARFSGTGSGTEFTLTISSLQSEDFAVYYCQQYKRWPTWTFGLGTR
B10: anti-GPC-3 IgG1 clone 3C12 (antibody, V domains shown)
VH: QVTLKESGPTLVKPTQTLTLTCTFSGFSLSTSGVGVGWIRQPPGKALEWLALIYWNDDKRYSPSLKSRLTITKDTSKNQVVLTMTNMDPVDTATYYCAHSRIAARRVLDYWGQGTL
VL: QSVLTQPPSASVAPGKTARITCGGNNIGSKSVHWYQQKPGQSPVLVIYQDTKRPSGIPERFSGSNSGNTATLTISGAQPMDEADYYCQAWYSTIMVFGGGTK
B11: anti-GPC-3 IgG1 clone 1F1 (antibody, V domains shown)
VH: QVQLVQSGAEVKKPGASVKVSCKASGYTFTSYGISWVRQAPGQRLEWMGWINAGNGNTKYSQKFQGRVTITRDTSASTAYMELSSLRSEDTAVYYCATVVYWGQGTL
VL: EIVLTQSPLSLPVTPGEPASISCRSSQSLLHSNGYNYLDWYLQKPGQSPQILIYLGSHRASGVPDRFSGSASGTDFTLKISRVEAEDVGVYYCMQALQTPLTFGGGTK
B12: anti-GPC-3 IgG1 clone 1H1 (antibody, V domains shown)
VH: QVQLQESGAGLLRPSETLSLTCAVYGGSFSGYYWSWIRQPPGKGLEWLGEISHSGSTNYNPSLKSRVTISVDTSKNQFSLKLSSVTAADAAVYYCARWVWSGYYNGEGYFDLWGRGTL
VL: B5 VL with I29V, I32S, R54S, S66R, S77T, Q91Y, L96P
B13: anti-GPC-3 IgG1 clone 1E1 (antibody, V domains shown)
VH: B5 VH with A24V
VL: VTTLTQSPGTLSLSPGERATLSCRASESVSSRYLAWYQQRPGQAPRLLIYGASRRATGSPERFSGGGSGTDFTLTISRLEPEDFAVYYCQHYGNSPGTFGQGTK

Target: recombinant human GPC-3 protein (human) (UniProt P51654)
Assay: ELISA on recombinant human GPC-3

binding | Binder
binds | B1
binds | B2
binds | B3
binds | B4
binds | B5
binds | B6
binds | B7
binds | B8
binds | B9
binds | B10
binds | B11
binds | B12

Target: recombinant mouse GPC-3 protein (mouse) (UniProt Q8CFZ4)
Assay: restated in Example 9 (cross-reactivity of Example 4)

binding | Binder
binds | B1
binds | B9
binds | B11
binds | B12

Target: recombinant cynomolgus GPC-3 protein (cynomolgus)
Assay: cross-reactivity ELISA, biotinylated recombinant GPC-3

binding | Binder
binds | B1
binds | B2
binds | B3
binds | B13
binds | B5
binds | B6
binds | B7
binds | B8
binds | B9
binds | B10
binds | B11
binds | B12

Target: recombinant mouse GPC-3 protein (mouse) (UniProt Q8CFZ4)
Assay: as above

binding | Binder
binds | B1
binds | B2
binds | B3
binds | B13
binds | B5
binds | B6
binds | B7
binds | B8
binds | B9
binds | B10
binds | B11
binds | B12

Target: recombinant human GPC-3 protein (human) (UniProt P51654)
Assay: binding ELISA, absorbance 450nm-570nm against Biotin-hGPC-3 (nM)

binding | Binder
binds | B1
binds | B2
binds | B3
binds | B4
binds | B13
binds | B5
binds | B6
binds | B7
binds | B8
binds | B9
binds | B10
binds | B11
binds | B12

Target: recombinant cynomolgus GPC-3 protein (cynomolgus)
Assay: cross-reactivity binding ELISA with biotinylated recombinant GPC-3, absorbance 450nm-570nm

binding | Binder
binds | B1
binds | B2
binds | B3
binds | B13
binds | B5
binds | B6
binds | B7
binds | B8
binds | B9
binds | B10
binds | B11
binds | B12

Target: recombinant human GPC-3 protein (human) (UniProt P51654)
Assay: as above

binding | Binder
binds | B1
binds | B2
binds | B3
binds | B4
binds | B13
binds | B5
binds | B6
binds | B7
binds | B8
binds | B9
binds | B10
binds | B11
binds | B12

Target: recombinant mouse GPC-3 protein (mouse) (UniProt Q8CFZ4)
Assay: as above

binding | Binder
binds | B1
binds | B2
binds | B3
binds | B13
binds | B5
binds | B6
binds | B7
binds | B8
binds | B9
binds | B10
binds | B11
binds | B12
